Data: PubChem BioAssay AID2685 (National Center for Advancing Translational Sciences (NCATS), 2010)
Some of the results follow. The main result of the screen is listed elsewhere. These columns were measured beside it and carry no call. Most of these compounds were active or inconclusive in the main read-out, so they are no random draw. Words in brackets tell the shape of the fitted curve; partial curves, single points and poor fits give uncertain potencies.

Experiment: qHTS Assay for Lipid Storage Modulators in Drosophila S3 Cells;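 for cell number change: cells counted by Cell Tracker Red CMTPX staining in the red channel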
Conditions: BODIPY lipid droplet fluorescence, 18-24 h; for cell number change: measured here: cell count max response, cells fed with added oleic acid
Summary of the method: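 Drosophila S3 cells loaded with oleic acid (400 uM, as added) and compounds at several concentrations; lipid droplets imaged by 488-nm laser-scanning cytometry, 500–530 nm intensity and object ratio to cell channel. Percent activity normalized to 20 uM Triacsin C.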

[1] = measured here: lipid fluorescence (Fed channel) AC50, cells fed with added oleic acid
[2] = measured here: cell number channel AC50, cells fed with added oleic acid

SMILES	cell number change [%]	AC50 [1]	AC50 [2]
CC(C(=O)NCCCc1ccccc1)n1cccc1C(=O)c1ccccc1 (stereo unspecified)	-3.96		
COc1ccc(N(CC(=O)NCCSCc2ccco2)S(=O)(=O)c2ccc(C)cc2)cc1	-18.5	1.64 µM [falling, partial curve]	
CCC(NC(=O)CCc1ccccc1)c1ccccc1 (stereo unspecified)	-41	6.51 µM [falling, single point]	7.31 µM [falling, single point]
CC(C)c1ccc(/C=C/C(=O)NCCCN2CCOCC2)cc1	32.4		32.6 µM [rising, single point]
Nc1ccc(C(=O)OCC(=O)NC2CCCc3ccccc32)cc1[N+](=O)[O-] (stereo unspecified)		6.51 µM [rising, single point]	6.51 µM [rising, single point]
CCN(CC)C(=O)c1ccc2c(c1)N(Cc1ccccc1)C(=O)CS2=O (stereo unspecified)	12.4	0.206 µM [falling, full curve, poor fit]	
O=C(CN1C(=O)CCSc2ccccc21)Nc1ccc2c(c1)OCO2	-30.6	0.259 µM [rising, partial curve]	23.1 µM [falling, single point]
Cc1ccc(C(=O)NNC(=O)c2ccncc2)cc1S(=O)(=O)N1CCOCC1	-33.6		23.1 µM [falling, single point]
Cc1cccc(NC(=O)c2nc[nH]c2C(=O)N(C)Cc2ccccc2)c1	-27.8		
Cc1c(Br)cc(C(=O)N2CCCCCC2)c(C)c1C	-8.59	0.00651 µM [falling, full curve, poor fit]	2.06 µM [falling, partial curve]
Cc1ccc(NC(=O)CO/N=C(\N)c2nonc2N)cc1		0.58 µM [rising, single point]	1.3 µM [rising, full curve]
COc1cccc(-c2c(C(=O)N/N=C/c3cccnc3)nnn2-c2nonc2N)c1	11.3	18.4 µM [rising, partial curve, poor fit]	
COc1ccccc1CC(=O)Nc1ccccc1C(=O)O	-45.6	6.51 µM [falling, single point]	14.6 µM [falling, partial curve, poor fit]
O=[N+]([O-])c1ccc(C(O)C[n+]2ccccc2)cc1 (stereo unspecified)	-4.01	6.51 µM [falling, partial curve, poor fit]	
COC(=O)c1ccc(CN2C(=O)c3ccccc3C2=O)cc1	6.08	4.11 µM [rising, single point]	
O=C(CCN1C(=O)C2C3C=CC(C4CC34)C2C1=O)Oc1ccc(Br)cc1 (stereo unspecified)	-12.8	6.51 µM [rising, partial curve, poor fit]	6.51 µM [rising, partial curve, poor fit]
O=C1COc2ccc(S(=O)(=O)Nc3ccc4c(c3)OCO4)cc2N1	4.19	6.51 µM [rising, single point]	
Cc1noc(C(=O)NCc2ccc(F)cc2)c1Cl	11.7		
FC(F)(F)c1nnc2ccc(N3CCN(c4ccccc4)CC3)nn12		3.26 µM [rising, partial curve, poor fit]	
Cc1nnc(NC(=O)c2ccccc2-c2ccccc2C(=O)O)s1	-0.32		
COc1ccc(S(=O)(=O)N(Cc2ccco2)Cc2cc3ccccc3[nH]c2=O)cc1	-4.42		

SMILES	cell number change [%]	AC50 [1]	AC50 [2]
Cc1cc(=O)[nH]c(SC(C)C(=O)Nc2cccc3ccccc23)n1 (stereo unspecified)	18.9		
CCOC(=O)CC(C(=O)OCC)P(=O)(c1ccccc1)c1ccccc1 (stereo unspecified)	-9.76	29.1 µM [rising, single point]	
CCCCN(CCCC)CCNC(=O)c1ccc2nc(-c3ccccc3NC(C)=O)c(=O)[nH]c2c1	6.79		6.51 µM [falling, partial curve, poor fit]
CC(C)(CNC(=O)c1ccc(S(=O)(=O)Nc2cccc(C(F)(F)F)c2)cc1)N1CCOCC1	11.5	29.1 µM [rising, single point]	
COc1cc(C(=O)NC2CCCc3ccccc32)ccc1OCC(=O)Nc1ccc(F)cc1 (stereo unspecified)	31.1	2.06 µM [rising, single point]	3.66 µM [rising, single point]
COc1ccc(-c2cc3onc(-c4c(Cl)cccc4Cl)c3c(=O)n2C)cc1	6.6	29.1 µM [falling, single point]	
O=S(=O)(NC1CC1)c1ccc(S(=O)(=O)N2CCc3ccccc32)cc1	-24.5	29.1 µM [rising, single point]	
CC(C)C[C@@]12C(=O)N(c3ccc(Br)cc3)C(=O)N1[C@H](c1ccc(Br)cc1)[C@@H]1C(=O)N(C(C)(C)C)C(=O)[C@@H]12	40.1		11.6 µM [rising, partial curve]
C/C(CC(=O)Nc1ccccn1)=N\NC(=O)c1ccccc1O	17.5	6.51 µM [rising, single point]	
CCOc1cc(-c2nnc(-c3ccco3)o2)cc(OCC)c1OCC	-9.45		
COCCNCc1ccc(C(C)C)cc1	41	6.51 µM [falling, single point]	29.1 µM [rising, single point]
CCCCC(=O)Nc1cccc(NC(=O)c2ccc3c(c2)OCO3)c1	5.87	0.00517 µM [rising, full curve, poor fit]	
O=C(Nc1ccnn1C1CCN(CC2CC=CCC2)CC1)c1ccccc1Cl (stereo unspecified)	-1.83	29.1 µM [rising, single point]	
O=C(O)CSc1c[nH]c2ccccc12	25.8	0.0326 µM [falling, full curve, poor fit]	
CN(CCCS(=O)(=O)[O-])c1ccc(/C=C/c2ccc3ccccc3[n+]2C)cc1	16.9	8.2 µM [rising, partial curve]	
N#CC1=C(N)C2=CCCC[C@H]2[C@H](c2cccc(F)c2)C1(C#N)C#N	-21.7	23.1 µM [falling, single point]	
O=C(COc1ccccc1N1C(=O)c2ccccc2C1=O)c1ccc(Cl)cc1	92.9		23.1 µM [rising, single point]
COc1ccc(NC(=O)/C(Cl)=C(/Cl)S(=O)(=O)Cc2ccccc2)cn1	-84.6	0.651 µM [falling, partial curve, poor fit]	29.1 µM [falling, single point]
COc1cc(OC)cc(C(=O)NCC2CCCN(C(=O)c3csc(C)n3)C2)c1 (stereo unspecified)	14.4	29.1 µM [falling, single point]	
CCN1CCN(c2ccc(S(=O)(=O)N3CCOCC3)cc2NC(=O)/C=C/c2cccc(OC)c2OC)CC1	60.6		14.6 µM [rising, partial curve]
CCn1c(CNC(=O)c2cccc(C)c2)nnc1SCC(=O)NC1CCCC1	-5.56	11.6 µM [falling, single point]	

Copied from the list.
Value for Cc1cc(=O)[nH]c(SC(C)C(=O)Nc2cccc3ccccc23)n1 (stereo unspecified) under cell number change [%]: 18.9
Value for O=C(Nc1ccnn1C1CCN(CC2CC=CCC2)CC1)c1ccccc1Cl (stereo unspecified) under AC50 [1]: 29.1 µM [rising, single point]
Value for C/C(CC(=O)Nc1ccccn1)=N\NC(=O)c1ccccc1O under AC50 [1]: 6.51 µM [rising, single point]

Next records:

SMILES	cell number change [%]	AC50 [1]	AC50 [2]
O=C(c1cn(Cc2ccccc2)nc1-c1cccnc1)N1CCN(Cc2ccccc2)CC1	3.63	0.116 µM [falling, full curve, poor fit]	
COc1ccc(N(CC(=O)NC2CCCCC2)C(=O)c2ccc(C)s2)cc1OC	10		
COc1ccc(Cl)cc1NC(=O)CSc1nnc(C2CC2)n1N		0.58 µM [falling, partial curve, poor fit]	
c1ccc(-c2ccccc2-n2cnnn2)cc1		5.8 µM [falling, partial curve]	5.8 µM [falling, single point]
CSCC[C@H](NC(=O)Nc1ccc(C)cc1)C(=O)O	-7.2		
CC(C)C[C@H](NS(=O)(=O)c1ccc(Br)cc1)C(=O)O	-53.9	29.1 µM [falling, single point]	14.6 µM [falling, partial curve]
O=C(Cn1nc([N+](=O)[O-])nc1Br)NC1CCCCC1	-23.8		0.164 µM [falling, full curve, poor fit]
O=C(O)CC/C(=N\Nc1ccc(Cl)cc1)c1cccs1	-3.6	32.6 µM [falling, single point]	
CCOP(=O)(c1ccc(N(C)C)cc1)C(O)c1ccc(OC)cc1 (stereo unspecified)		6.51 µM [falling, single point]	
CCOC(=O)N1CCN(C(=O)CNS(=O)(=O)c2cccs2)CC1	-19.2		
COC(=O)c1cc(NC(=O)c2cccs2)ccc1N1CCOCC1	-33.8	16.4 µM [falling, single point]	23.1 µM [falling, single point]
O=C(NCc1ccccc1CN1CCCC1)c1ccc(OCc2cscn2)cc1	-4.91		
CCc1noc(C)c1C(=O)Nc1nc2c(C)cc(C)cc2s1	34	3.66 µM [rising, full curve]	3.26 µM [rising, full curve]
COc1ccc(OCC(O)Cn2c(N3CCCCC3)nc3c2c(=O)[nH]c(=O)n3C)cc1 (stereo unspecified)	-19.1	29.1 µM [falling, single point]	
Fc1cc2nc(-c3ccncc3)[nH]c2cc1F	-7.67		
O=S(=O)(c1ccc(Cl)cc1)n1cnc2ccccc21	5.28	29.1 µM [rising, single point]	
CCC(=O)N1N=C(c2ccccc2)CC1c1ccccc1 (stereo unspecified)	-3.94	6.51 µM [falling, single point]	
COc1cc(/C=N/NC(N)=O)ccc1OC(=O)c1cccs1	18.8		
Cc1noc(C)c1COc1ccc(C(=O)N2CCN(c3ccccn3)CC2)cc1	27.7		
